Experimental data published in the supplement of paper PMC7661543.
Differences between knockout arms are mostly noise.

Tested on: MDA-MB-231
Test: relative cell number vs DMSO control (72 h) (% of DMSO); higher = less growth inhibition (more cells)
Method: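 QMAP-Seq: a pool of 5 breast cancer cell lines (ZR-75-1, SKBR3, HCC-38, MDA-MB-231, BT-20), each carrying 12 doxycycline-inducible Cas9 sgRNA perturbations (11 knockouts plus non-targeting sgNT), was treated with compounds for 72 h at four 10-fold doses (10 nM-10 uM or 1 nM-1 uM range). Barcodes were amplified and sequenced, and cell number was interpolated from 293T spike-in standard curves. The result is expressed as % of the median of DMSO wells. Two biological replicates.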

CN(C)c1cc(NC(=O)CNC(C)(C)C)c(O)c2c1C[C@H]1C[C@H]3[C@H](N(C)C)C(O)=C(C(N)=O)C(=O)[C@@]3(O)C(O)=C1C2=O [Tigecycline]
Conditions | relative cell number
sgRNA knockout: sgATF3, 10 nM | 110
sgRNA knockout: sgATF3, 100 nM | 96.5
sgRNA knockout: sgATF3, 1000 nM | 107
sgRNA knockout: sgATF3, 10000 nM | 110
sgRNA knockout: sgATF4, 10 nM | 99.2
sgRNA knockout: sgATF4, 100 nM | 106
sgRNA knockout: sgATF4, 1000 nM | 116
sgRNA knockout: sgATF4, 10000 nM | 107
sgRNA knockout: sgATF6, 10 nM | 82.5
sgRNA knockout: sgATF6, 100 nM | 114
sgRNA knockout: sgATF6, 1000 nM | 114
sgRNA knockout: sgATF6, 10000 nM | 98.3
sgRNA knockout: sgATG7, 10 nM | 86.3
sgRNA knockout: sgATG7, 100 nM | 100
sgRNA knockout: sgATG7, 1000 nM | 91.9
sgRNA knockout: sgATG7, 10000 nM | 90.79
sgRNA knockout: sgERN1, 10 nM | 106
sgRNA knockout: sgERN1, 100 nM | 99.8
sgRNA knockout: sgERN1, 1000 nM | 107
sgRNA knockout: sgERN1, 10000 nM | 143
sgRNA knockout: sgHSF1, 10 nM | 106
sgRNA knockout: sgHSF1, 100 nM | 79.7
sgRNA knockout: sgHSF1, 1000 nM | 85.2
sgRNA knockout: sgHSF1, 10000 nM | 86.7
sgRNA knockout: sgHSF2, 10 nM | 99.9
sgRNA knockout: sgHSF2, 100 nM | 108
sgRNA knockout: sgHSF2, 1000 nM | 100
sgRNA knockout: sgHSF2, 10000 nM | 65.3
sgRNA knockout: sgKEAP1, 10 nM | 98.2
sgRNA knockout: sgKEAP1, 100 nM | 107
sgRNA knockout: sgKEAP1, 1000 nM | 89.1
sgRNA knockout: sgKEAP1, 10000 nM | 97.4
sgRNA knockout: sgNFE2L2, 10 nM | 102
sgRNA knockout: sgNFE2L2, 100 nM | 107
sgRNA knockout: sgNFE2L2, 1000 nM | 93.4
sgRNA knockout: sgNFE2L2, 10000 nM | 71.5
sgRNA knockout: sgSLC35F2, 10 nM | 108
sgRNA knockout: sgSLC35F2, 100 nM | 106
sgRNA knockout: sgSLC35F2, 1000 nM | 121
sgRNA knockout: sgSLC35F2, 10000 nM | 110
sgRNA knockout: sgXBP1, 10 nM | 97
sgRNA knockout: sgXBP1, 100 nM | 107
sgRNA knockout: sgXBP1, 1000 nM | 112
sgRNA knockout: sgXBP1, 10000 nM | 99.2

C[C@@H](Oc1cc(-c2cnn(C3CCNCC3)c2)cnc1N)c1c(Cl)ccc(F)c1Cl [Crizotinib]
Conditions | relative cell number
sgRNA knockout: sgATF3, 10 nM | 74.87
sgRNA knockout: sgATF3, 100 nM | 98.2
sgRNA knockout: sgATF3, 1000 nM | 56.9
sgRNA knockout: sgATF3, 10000 nM | 6.4
sgRNA knockout: sgATF4, 10 nM | 68.2
sgRNA knockout: sgATF4, 100 nM | 94
sgRNA knockout: sgATF4, 1000 nM | 52.9
sgRNA knockout: sgATF4, 10000 nM | 9.62
sgRNA knockout: sgATF6, 10 nM | 123
sgRNA knockout: sgATF6, 100 nM | 84.8
sgRNA knockout: sgATF6, 1000 nM | 52.1
sgRNA knockout: sgATF6, 10000 nM | 10.3
sgRNA knockout: sgATG7, 10 nM | 104
sgRNA knockout: sgATG7, 100 nM | 83.9
sgRNA knockout: sgATG7, 1000 nM | 45
sgRNA knockout: sgATG7, 10000 nM | 10.1
sgRNA knockout: sgERN1, 10 nM | 96.8
sgRNA knockout: sgERN1, 100 nM | 71.1
sgRNA knockout: sgERN1, 1000 nM | 45.4
sgRNA knockout: sgERN1, 10000 nM | 12.7
sgRNA knockout: sgHSF1, 10 nM | 88.4
sgRNA knockout: sgHSF1, 100 nM | 97
sgRNA knockout: sgHSF1, 1000 nM | 53.1
sgRNA knockout: sgHSF1, 10000 nM | 8.28
sgRNA knockout: sgHSF2, 10 nM | 81.3
sgRNA knockout: sgHSF2, 100 nM | 90.3
sgRNA knockout: sgHSF2, 1000 nM | 60.7
sgRNA knockout: sgHSF2, 10000 nM | 12
sgRNA knockout: sgKEAP1, 10 nM | 77.2
sgRNA knockout: sgKEAP1, 100 nM | 70.4
sgRNA knockout: sgKEAP1, 1000 nM | 62.9
sgRNA knockout: sgKEAP1, 10000 nM | 10.2
sgRNA knockout: sgNFE2L2, 10 nM | 90.79
sgRNA knockout: sgNFE2L2, 100 nM | 93.4
sgRNA knockout: sgNFE2L2, 1000 nM | 57.8
sgRNA knockout: sgNFE2L2, 10000 nM | 9.84
sgRNA knockout: sgSLC35F2, 10 nM | 78.6
sgRNA knockout: sgSLC35F2, 100 nM | 62.5
sgRNA knockout: sgSLC35F2, 1000 nM | 34.1
sgRNA knockout: sgSLC35F2, 10000 nM | 11.2
sgRNA knockout: sgXBP1, 10 nM | 91.9
sgRNA knockout: sgXBP1, 100 nM | 89.6
sgRNA knockout: sgXBP1, 1000 nM | 55.6
sgRNA knockout: sgXBP1, 10000 nM | 7.84
